Laboratory results taken from patent publication US6288082A, “Substituted 3-cyanoquinolines” (priority 1999, dated 2001).
“And” between values parts separate entries of the source, which are not always exact repeats. Equal values may be shown once. The name of at least one read-out is uncertain.

Biological target: Mitogen Activated Protein Kinase (Mek-Erk)
Experiment: Mitogen Activated Protein Kinase (MAPK) assay, coupled Mek-Erk
Assay type: biochemical, human
Conditions: MBP or Myc peptide substrate, pH 7.4
Experimental: Mitogen Activated Protein Kinase (MAPK) Assay
To evaluate inhibitors of the MAP (mitogen activated protein) kinase a two component coupled standard pharmacological test procedure, which measures phosphorylation of a serine/threonine residue in an appropriate sequence in the substrate in the presence and absence of a putative inhibitor, was used. Recombinant human MEK 1 (MAPKK) was first used to activate recombinant human ERK2 (MAPK) and the activated MAPK (ERK) was incubated with substrate (MBP peptide or MYC peptide) in the presence of ATP, Mg^+2 and radiolabeled ^33 P ATP. The phosphorylated peptide was captured on a P 81 phosphocellulose filter (paper filter or embedded in microtiter plate) washed and counted by scintillation methods. […]
The reaction was run as follows in 50 mM Tris kinase buffer, pH 7.4 in a reaction volume of 50 ul. […] The filters or MTP were briefly air dried before addition of scintillant and samples were counted in the appropriate scintillation counter set up for reading ^33 P isotope. […]
The raw data was captured as cpm. […] Mean cpm data was tabulated by group and % inhibition by a test compound was calculated as (corrected cpm control-corrected. cpm sample/control)×100=% inhibition. […]

With `CCOc1cc2ncc(C#N)c(Nc3ccc4cn[nH]c4c3)c2cc1OCC` [Example 99, 6,7-Diethoxy-4-(1H-indazol-6-ylamino)-quinoline-3-carbonitrile] the IC50 was 80 nM and 60 nM and 400 nM.
